Laboratory results reported in publication PMC4148199, “Multiple Regulation of Rad51-Mediated Homologous Recombination by Fission Yeast Fbh1” (PLoS Genetics, 2014).
Construct, isoform or probe ends are uncertain for at least one entry. A weaker result is weaker than the reference pair of the same experiment. At least one verdict rests on a figure or table, not on a statement of the authors.

System: Fbh1 + Skp1
Test: EMSA
Conditions: 3 mM Mg-acetate, ssDNA preferred over dsDNA, EMSA: 25 mM Tris-acetate pH 8.0, 1 mM DTT, 5% glycerol, 100 mM KCl, 10 nM DNA, 30 C 10 min, recombinant protein, protein details: 6His,6His, label: 32P on F3-d47

Sequence: AGCTATGACCATGATTACGAATTGCTTGGAATCCTGACGAACTGTAG (double strand) [F3-d47/F3-d47R (47 bp dsDNA)]
- binding result: binds more weakly
